From paper PMC3114867
These are yes or no findings as the source states them, for the method shown. In cells and extracts the contact can be indirect. Some binding calls cover weakened binding; strength is not graded here.

By UniProt entry, the sequences of proteins in these tests, tags left out.
UniProt P62993: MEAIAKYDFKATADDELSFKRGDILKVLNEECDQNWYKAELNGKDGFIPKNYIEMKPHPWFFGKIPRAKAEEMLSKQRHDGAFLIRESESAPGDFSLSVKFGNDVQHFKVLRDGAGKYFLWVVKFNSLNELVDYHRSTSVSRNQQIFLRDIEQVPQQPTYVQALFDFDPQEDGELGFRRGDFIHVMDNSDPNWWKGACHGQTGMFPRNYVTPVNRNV

T1: LyGDI (RhoGDIβ, RhoGDI2, D4-GDI or GDID4) (human (endogenous in THP-1)) (UniProt P52566)
T1 sequence: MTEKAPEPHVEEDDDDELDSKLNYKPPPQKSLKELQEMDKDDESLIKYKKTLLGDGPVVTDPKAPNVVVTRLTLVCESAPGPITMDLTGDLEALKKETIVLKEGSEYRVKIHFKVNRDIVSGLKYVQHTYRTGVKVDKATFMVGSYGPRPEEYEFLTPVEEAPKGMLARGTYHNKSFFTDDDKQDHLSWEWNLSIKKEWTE

T2: SHIP (SH2 domain-containing inositol phosphatase) (human (endogenous in THP-1)) (UniProt Q92835)
T2 sequence: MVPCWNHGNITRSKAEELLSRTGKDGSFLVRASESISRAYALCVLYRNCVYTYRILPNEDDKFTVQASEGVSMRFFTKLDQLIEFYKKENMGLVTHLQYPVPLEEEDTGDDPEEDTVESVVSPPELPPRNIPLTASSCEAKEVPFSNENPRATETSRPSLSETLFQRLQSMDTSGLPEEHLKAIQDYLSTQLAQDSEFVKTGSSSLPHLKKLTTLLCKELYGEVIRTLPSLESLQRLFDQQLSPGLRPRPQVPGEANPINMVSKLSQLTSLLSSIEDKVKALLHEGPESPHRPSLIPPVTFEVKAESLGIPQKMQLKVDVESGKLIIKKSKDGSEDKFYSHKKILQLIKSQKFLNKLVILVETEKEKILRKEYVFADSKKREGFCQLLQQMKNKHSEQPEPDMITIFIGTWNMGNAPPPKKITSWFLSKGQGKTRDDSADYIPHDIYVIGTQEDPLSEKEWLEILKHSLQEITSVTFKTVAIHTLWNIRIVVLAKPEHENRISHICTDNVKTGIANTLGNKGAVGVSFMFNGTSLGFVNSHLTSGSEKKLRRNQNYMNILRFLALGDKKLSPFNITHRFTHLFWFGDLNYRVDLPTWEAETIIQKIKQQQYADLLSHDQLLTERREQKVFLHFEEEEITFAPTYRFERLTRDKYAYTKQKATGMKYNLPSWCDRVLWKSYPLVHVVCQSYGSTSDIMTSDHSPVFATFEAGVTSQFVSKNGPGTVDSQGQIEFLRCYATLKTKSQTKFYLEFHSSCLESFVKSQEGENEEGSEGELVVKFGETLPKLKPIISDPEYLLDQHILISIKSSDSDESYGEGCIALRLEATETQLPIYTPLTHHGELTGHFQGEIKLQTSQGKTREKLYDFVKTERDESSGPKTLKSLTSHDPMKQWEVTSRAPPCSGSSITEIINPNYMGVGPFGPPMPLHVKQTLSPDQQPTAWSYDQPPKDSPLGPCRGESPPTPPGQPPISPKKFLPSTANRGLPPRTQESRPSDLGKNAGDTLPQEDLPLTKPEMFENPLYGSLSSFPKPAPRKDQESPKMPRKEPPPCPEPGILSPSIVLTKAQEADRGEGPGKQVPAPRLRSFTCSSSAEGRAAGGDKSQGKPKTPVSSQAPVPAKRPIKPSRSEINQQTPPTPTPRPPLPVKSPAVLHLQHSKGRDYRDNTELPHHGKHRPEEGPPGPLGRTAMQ


Key:
[1] = target: T1, LyGDI (RhoGDIβ, RhoGDI2, D4-GDI or GDID4) (human (endogenous in THP-1)); test: co-IP; endogenous proteins from resting and FcγR-stimulated (CD32, FcγRI 32.2 or FcγRIIa IV.3 antibodies) THP-1 lysates in TN1 lysis buffer; antibody overnight, protein G-agarose 60 minutes at 4°C, Western blot; also in non-depleted and Shc-immunodepleted lysates
[2] = target: T2, SHIP (SH2 domain-containing inositol phosphatase) (human (endogenous in THP-1)); test: as above

Row | Molecule | binding [1] | binding [2]
1 | Grb2 (from UniProt P62993 1-217) | binds | binds
2 | Shc (protein, UniProt P29353 1-583) MDLLPPKPKYNPLRNESLSSLEEGASGSTPPEELPSPSASSLGPILPPLPGDDSPTTLCSFFPRMSNLRLANPAGGRPGSKGEPGRAADDGEGIVGAAMPDSGPLPLLQDMNKLSGGGGRRTRVEGGQLGGEEWTRHGSFVNKPTRGWLHPNDKVMGPGVSYLVRYMGCVEVLQSMRALDFNTRTQVTREAISLVCEAVPGAKGATRRRKPCSRPLSSILGRSNLKFAGMPITLTVSTSSLNLMAADCKQIIANHHMQSISFASGGDPDTAEYVAYVAKDPVNQRACHILECPEGLAQDVISTIGQAFELRFKQYLRNPPKLVTPHDRMAGFDGSAWDEEEEEPPDHQYYNDFPGKEPPLGGVVDMRLREGAAPGAARPTAPNAQTPSHLGATLPVGQPVGGDPEVRKQMPPPPPCPGRELFDDPSYVNVQNLDKARQAVGGAGPPNPAINGSAPRDLFDMKPFEDALRVPPPPQSVSMAEQLRGEPWFHGKLSRREAEALLQLNGDFLVRESTTTPGQYVLTGLQSGQPKHLLLVDPEGVVRTKDHRFESVSHLISYHMDNHLPIISAGSELCLQQPVERKL | binds | binds
